These are yes or no findings as the source states them, for the method shown. Binding seen in cells or lysates may run through a third protein. A yes stands for co-enrichment or nearness to the bait. Other partners may have been found.
T1: TNPO2 (human) (UniProt O14787)
T1 sequence: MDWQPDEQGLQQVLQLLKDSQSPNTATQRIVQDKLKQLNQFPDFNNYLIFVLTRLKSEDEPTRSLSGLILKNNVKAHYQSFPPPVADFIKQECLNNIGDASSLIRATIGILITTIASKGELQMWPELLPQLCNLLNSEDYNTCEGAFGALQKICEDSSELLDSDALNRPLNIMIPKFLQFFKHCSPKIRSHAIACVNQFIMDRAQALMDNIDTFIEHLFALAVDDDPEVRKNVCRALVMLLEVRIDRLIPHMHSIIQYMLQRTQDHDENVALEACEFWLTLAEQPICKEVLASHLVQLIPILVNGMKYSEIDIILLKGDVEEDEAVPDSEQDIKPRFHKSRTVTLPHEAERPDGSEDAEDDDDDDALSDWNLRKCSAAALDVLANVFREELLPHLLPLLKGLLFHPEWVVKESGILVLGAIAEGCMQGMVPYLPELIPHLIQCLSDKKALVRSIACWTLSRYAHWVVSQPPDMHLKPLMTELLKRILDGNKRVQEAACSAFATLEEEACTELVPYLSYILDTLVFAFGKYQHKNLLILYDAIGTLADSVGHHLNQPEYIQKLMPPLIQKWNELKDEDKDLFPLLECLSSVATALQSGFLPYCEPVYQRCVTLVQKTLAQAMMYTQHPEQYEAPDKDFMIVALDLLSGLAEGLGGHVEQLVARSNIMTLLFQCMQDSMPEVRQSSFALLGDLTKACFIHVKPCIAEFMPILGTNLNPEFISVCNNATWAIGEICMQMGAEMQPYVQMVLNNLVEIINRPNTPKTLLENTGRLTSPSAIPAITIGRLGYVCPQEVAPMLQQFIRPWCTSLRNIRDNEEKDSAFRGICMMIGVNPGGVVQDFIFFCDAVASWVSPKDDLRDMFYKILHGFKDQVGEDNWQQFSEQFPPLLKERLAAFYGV

Chains of the proteins cited; added tags and fusions are not shown.
UniProt P52294: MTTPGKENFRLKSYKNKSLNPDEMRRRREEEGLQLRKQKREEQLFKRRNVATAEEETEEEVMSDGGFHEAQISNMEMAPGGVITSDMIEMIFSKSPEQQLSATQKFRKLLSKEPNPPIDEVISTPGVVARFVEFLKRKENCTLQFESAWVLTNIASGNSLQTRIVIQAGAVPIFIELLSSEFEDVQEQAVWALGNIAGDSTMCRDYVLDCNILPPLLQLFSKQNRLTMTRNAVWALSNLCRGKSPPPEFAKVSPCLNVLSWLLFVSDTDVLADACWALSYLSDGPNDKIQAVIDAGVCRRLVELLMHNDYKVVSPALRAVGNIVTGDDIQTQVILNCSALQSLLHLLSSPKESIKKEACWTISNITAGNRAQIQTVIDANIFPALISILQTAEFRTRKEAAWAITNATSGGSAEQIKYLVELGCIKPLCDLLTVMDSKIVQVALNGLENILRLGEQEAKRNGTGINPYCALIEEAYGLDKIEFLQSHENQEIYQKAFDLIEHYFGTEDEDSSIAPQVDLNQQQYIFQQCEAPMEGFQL
UniProt Q86WJ1: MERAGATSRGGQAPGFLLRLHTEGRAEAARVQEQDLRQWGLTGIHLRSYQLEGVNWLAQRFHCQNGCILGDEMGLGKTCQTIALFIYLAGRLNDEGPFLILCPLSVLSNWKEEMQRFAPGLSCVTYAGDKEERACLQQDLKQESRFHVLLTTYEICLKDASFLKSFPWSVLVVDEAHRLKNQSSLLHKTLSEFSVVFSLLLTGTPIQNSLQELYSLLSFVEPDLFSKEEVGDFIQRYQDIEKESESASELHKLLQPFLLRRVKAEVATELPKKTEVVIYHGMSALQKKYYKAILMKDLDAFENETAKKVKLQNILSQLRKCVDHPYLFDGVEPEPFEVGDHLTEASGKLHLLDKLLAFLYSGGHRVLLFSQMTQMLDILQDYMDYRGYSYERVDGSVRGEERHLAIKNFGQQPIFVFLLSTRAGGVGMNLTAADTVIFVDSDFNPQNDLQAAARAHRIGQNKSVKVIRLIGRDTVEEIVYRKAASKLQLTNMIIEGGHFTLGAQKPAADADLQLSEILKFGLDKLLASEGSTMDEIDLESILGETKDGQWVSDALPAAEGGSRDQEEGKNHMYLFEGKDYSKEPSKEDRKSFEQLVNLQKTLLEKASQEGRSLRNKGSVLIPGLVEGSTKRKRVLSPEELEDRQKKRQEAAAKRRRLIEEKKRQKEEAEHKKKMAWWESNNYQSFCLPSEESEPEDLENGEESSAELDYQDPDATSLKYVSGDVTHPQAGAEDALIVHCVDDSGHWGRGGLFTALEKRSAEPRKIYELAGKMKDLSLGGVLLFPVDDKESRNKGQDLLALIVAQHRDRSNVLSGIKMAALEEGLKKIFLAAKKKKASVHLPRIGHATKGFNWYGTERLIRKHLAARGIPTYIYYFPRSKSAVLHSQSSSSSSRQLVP
UniProt Q06265: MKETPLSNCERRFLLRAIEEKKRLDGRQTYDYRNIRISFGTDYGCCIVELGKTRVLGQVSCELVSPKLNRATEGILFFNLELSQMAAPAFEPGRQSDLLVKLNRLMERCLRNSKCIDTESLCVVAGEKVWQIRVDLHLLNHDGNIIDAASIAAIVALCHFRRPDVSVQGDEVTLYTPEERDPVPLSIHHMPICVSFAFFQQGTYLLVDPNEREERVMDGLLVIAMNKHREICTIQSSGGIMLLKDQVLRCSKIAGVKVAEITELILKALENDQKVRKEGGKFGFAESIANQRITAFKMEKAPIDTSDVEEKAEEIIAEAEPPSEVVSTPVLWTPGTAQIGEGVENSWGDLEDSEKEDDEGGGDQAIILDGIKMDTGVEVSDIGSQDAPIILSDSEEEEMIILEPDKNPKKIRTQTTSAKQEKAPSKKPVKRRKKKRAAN
UniProt Q96HW7: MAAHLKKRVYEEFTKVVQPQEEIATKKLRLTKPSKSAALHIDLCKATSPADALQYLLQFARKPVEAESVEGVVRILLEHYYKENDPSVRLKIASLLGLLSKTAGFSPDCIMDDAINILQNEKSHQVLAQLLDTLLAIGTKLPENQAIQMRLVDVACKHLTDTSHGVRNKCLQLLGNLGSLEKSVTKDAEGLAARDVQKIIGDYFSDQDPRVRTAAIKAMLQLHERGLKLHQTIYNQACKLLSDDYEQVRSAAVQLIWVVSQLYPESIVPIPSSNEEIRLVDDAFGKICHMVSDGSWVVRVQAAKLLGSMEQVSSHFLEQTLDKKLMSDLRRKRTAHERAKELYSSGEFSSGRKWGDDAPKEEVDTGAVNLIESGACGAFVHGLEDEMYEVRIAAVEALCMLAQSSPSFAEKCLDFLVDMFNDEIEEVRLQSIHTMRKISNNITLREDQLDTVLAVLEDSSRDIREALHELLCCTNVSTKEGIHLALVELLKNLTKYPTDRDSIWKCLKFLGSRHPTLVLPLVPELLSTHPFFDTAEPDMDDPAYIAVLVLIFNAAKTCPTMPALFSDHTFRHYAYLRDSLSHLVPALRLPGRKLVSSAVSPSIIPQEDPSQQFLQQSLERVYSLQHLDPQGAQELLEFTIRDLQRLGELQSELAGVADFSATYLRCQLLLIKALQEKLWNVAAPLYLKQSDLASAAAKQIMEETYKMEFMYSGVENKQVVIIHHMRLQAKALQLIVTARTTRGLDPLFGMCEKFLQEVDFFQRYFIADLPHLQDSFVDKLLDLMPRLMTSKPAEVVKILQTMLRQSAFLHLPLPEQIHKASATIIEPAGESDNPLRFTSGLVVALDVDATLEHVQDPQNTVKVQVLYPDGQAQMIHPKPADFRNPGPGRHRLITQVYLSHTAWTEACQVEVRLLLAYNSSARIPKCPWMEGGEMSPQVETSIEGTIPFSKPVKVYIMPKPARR
UniProt Q9NVR2: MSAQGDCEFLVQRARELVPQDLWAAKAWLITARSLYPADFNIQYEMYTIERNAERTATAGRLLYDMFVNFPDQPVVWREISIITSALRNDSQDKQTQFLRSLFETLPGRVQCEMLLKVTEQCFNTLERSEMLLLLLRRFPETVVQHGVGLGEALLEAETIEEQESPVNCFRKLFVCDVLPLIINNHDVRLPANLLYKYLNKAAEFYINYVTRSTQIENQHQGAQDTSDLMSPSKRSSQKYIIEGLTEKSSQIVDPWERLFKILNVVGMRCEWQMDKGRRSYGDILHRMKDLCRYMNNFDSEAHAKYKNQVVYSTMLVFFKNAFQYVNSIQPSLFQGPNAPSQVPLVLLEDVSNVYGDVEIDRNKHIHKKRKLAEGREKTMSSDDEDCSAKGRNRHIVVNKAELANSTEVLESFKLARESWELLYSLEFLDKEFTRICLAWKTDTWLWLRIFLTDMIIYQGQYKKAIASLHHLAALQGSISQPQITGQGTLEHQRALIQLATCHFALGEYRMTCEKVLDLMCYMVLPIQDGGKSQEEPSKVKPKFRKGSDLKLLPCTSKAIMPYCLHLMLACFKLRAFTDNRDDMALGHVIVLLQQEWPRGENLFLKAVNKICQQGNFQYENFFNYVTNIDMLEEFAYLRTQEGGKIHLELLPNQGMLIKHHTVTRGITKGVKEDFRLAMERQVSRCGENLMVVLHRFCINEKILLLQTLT
UniProt Q5TA45: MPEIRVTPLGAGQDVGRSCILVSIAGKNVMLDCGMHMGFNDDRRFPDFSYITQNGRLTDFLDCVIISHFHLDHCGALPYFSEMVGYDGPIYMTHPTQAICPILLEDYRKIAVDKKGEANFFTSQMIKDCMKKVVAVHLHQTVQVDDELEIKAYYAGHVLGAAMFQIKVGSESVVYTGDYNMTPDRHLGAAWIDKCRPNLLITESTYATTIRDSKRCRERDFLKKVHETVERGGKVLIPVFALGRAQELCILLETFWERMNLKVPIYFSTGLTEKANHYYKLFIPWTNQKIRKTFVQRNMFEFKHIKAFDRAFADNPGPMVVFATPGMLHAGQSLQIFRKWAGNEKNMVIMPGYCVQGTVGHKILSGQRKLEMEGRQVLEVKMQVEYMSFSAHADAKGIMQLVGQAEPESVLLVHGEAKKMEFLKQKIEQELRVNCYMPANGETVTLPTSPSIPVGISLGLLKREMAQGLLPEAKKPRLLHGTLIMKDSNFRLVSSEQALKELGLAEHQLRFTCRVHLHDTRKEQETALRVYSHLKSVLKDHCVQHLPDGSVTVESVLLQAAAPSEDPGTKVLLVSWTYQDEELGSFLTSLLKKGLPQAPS
UniProt P0DPB6: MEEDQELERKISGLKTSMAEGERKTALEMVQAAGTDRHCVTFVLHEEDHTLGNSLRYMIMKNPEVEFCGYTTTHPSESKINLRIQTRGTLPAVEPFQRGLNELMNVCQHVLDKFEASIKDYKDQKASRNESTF
UniProt Q8TEX9: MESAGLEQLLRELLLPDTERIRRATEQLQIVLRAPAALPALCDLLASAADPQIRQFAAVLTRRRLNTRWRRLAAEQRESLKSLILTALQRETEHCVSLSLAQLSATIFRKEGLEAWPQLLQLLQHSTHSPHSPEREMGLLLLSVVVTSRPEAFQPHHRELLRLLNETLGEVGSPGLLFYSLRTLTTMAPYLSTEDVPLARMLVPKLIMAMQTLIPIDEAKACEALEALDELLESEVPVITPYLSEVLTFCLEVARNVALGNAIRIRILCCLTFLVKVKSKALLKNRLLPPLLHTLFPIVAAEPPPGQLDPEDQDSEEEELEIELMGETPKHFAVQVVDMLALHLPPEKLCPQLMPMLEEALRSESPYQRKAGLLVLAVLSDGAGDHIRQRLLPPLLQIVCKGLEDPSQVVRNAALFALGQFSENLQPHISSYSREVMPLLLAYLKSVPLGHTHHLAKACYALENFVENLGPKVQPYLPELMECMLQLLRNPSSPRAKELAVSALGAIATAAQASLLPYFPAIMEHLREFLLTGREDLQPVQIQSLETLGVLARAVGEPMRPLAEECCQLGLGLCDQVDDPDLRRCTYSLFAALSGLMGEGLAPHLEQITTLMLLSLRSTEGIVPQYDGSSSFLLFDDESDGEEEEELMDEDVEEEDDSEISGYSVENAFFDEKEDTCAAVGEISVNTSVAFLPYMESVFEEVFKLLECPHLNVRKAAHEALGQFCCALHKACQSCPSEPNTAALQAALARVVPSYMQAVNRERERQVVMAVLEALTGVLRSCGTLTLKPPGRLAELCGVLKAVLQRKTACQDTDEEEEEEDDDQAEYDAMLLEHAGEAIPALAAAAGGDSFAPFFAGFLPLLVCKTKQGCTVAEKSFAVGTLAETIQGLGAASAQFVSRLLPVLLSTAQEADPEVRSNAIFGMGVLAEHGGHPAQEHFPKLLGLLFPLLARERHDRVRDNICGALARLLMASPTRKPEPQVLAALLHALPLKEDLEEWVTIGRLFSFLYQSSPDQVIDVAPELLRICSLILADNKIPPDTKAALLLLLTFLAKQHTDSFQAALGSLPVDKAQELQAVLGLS
UniProt Q96AE4: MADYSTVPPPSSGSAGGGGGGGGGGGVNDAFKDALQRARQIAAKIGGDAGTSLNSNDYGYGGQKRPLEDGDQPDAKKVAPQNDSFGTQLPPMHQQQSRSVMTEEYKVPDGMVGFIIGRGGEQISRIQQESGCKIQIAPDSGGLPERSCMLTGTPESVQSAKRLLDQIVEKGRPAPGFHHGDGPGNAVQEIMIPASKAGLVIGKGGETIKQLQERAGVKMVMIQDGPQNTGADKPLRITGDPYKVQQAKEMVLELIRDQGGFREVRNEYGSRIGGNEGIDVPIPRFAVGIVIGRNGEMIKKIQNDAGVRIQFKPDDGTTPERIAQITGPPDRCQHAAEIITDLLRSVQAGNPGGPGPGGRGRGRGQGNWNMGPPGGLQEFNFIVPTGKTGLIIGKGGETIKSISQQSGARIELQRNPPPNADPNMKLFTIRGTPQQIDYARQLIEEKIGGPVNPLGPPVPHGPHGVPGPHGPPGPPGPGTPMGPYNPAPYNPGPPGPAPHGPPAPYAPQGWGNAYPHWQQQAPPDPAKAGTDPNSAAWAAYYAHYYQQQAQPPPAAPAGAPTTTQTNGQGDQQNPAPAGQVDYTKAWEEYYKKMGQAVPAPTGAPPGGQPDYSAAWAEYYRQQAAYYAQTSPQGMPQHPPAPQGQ
UniProt Q96I24: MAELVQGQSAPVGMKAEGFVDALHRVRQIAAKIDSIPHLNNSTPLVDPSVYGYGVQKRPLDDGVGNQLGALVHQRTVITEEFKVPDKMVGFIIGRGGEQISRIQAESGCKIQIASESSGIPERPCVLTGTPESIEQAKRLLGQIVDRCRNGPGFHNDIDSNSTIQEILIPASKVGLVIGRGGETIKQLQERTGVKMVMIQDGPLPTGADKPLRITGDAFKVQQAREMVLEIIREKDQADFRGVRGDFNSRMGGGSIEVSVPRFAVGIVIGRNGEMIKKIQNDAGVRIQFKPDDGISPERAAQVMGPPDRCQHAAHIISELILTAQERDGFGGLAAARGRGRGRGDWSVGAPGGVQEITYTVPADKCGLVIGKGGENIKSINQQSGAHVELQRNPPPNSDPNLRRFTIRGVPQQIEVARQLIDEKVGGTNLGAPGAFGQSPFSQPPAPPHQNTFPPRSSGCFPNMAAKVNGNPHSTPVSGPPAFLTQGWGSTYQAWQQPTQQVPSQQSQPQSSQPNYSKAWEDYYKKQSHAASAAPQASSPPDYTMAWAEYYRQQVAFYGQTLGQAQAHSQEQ


These molecules were tested against IMA5 (human) (UniProt P52294) (assay: proximity labelling; BioID, large-scale, direct identification of biotinylated peptides: same NTR-BirA* lines; biotinylated peptides eluted from streptavidin beads with 80% ACN, 20% TFA after the on-bead digest, MS).

binding | Molecule
binds | CHD3 (from UniProt Q12873 1-2000)
binds | CHD7 (from UniProt Q9P2D1 1-2997)
binds | CHD8 (from UniProt Q9HCK8 1-2581)
binds | CHDL1 (from UniProt Q86WJ1 1-897)
binds | EXOSC9 (from UniProt Q06265 1-439)
binds | INTS4 (from UniProt Q96HW7 1-963)
binds | INTS10 (from UniProt Q9NVR2 1-710)
binds | INTS11 (from UniProt Q5TA45 1-600)
binds | MSH6 (from UniProt P52701 1-1360)
binds | RPAC2 (from UniProt P0DPB6 1-133)
binds | RPC3 (from UniProt Q9BUI4 1-534)
binds | SMC4 (from UniProt Q9NTJ3 1-1288)
binds | ELL (protein, UniProt P55199 1-621) MAALKEDRSYGLSCGRVSDGSKVSVFHVKLTDSALRAFESYRARQDSVSLRPSIRFQGSQGHISIPQPDCPAEARTFSFYLSNIGRDNPQGSFDCIQQYVSSHGEVHLDCLGSIQDKITVCATDDSYQKARQSMAQAEEETRSRSAIVIKAGGRYLGKKVQFRKPAPGATDAVPSRKRATPINLASAIRKSGASAVSGGSGVSQRPFRDRVLHLLALRPYRKAELLLRLQKDGLTQADKDALDGLLQQVANMSAKDGTCTLQDCMYKDVQKDWPGYSEGDQQLLKRVLVRKLCQPQSTGSLLGDPAASSPPGERGRSASPPQKRLQPPDFIDPLANKKPRISHFTQRAQPAVNGKLGVPNGREALLPTPGPPASTDTLSSSTHLPPRLEPPRAHDPLADVSNDLGHSGRDCEHGEAAAPAPTVRLGLPLLTDCAQPSRPHGSPSRSKPKKKSKKHKDKERAAEDKPRAQLPDCAPATHATPGAPADTPGLNGTCSVSSVPTSTSETPDYLLKYAAISSSEQRQSYKNDFNAEYSEYRDLHARIERITRRFTQLDAQLRQLSQGSEEYETTRGQILQEYRKIKKTNTNYSQEKHRCEYLHSKLAHIKRLIAEYDQRQLQAWP
binds | RRP44 (protein, UniProt Q9Y2L1 1-958) MLKSKTFLKKTRAGGVMKIVREHYLRDDIGCGAPGCAACGGAHEGPALEPQPQDPASSVCPQPHYLLPDTNVLLHQIDVLEDPAIRNVIVLQTVLQEVRNRSAPVYKRIRDVTNNQEKHFYTFTNEHHRETYVEQEQGENANDRNDRAIRVAAKWYNEHLKKMSADNQLQVIFITNDRRNKEKAIEEGIPAFTCEEYVKSLTANPELIDRLACLSEEGNEIESGKIIFSEHLPLSKLQQGIKSGTYLQGTFRASRENYLEATVWIHGDNEENKEIILQGLKHLNRAVHEDIVAVELLPKSQWVAPSSVVLHDEGQNEEDVEKEEETERMLKTAVSEKMLKPTGRVVGIIKRNWRPYCGMLSKSDIKESRRHLFTPADKRIPRIRIETRQASTLEGRRIIVAIDGWPRNSRYPNGHFVRNLGDVGEKETETEVLLLEHDVPHQPFSQAVLSFLPKMPWSITEKDMKNREDLRHLCICSVDPPGCTDIDDALHCRELENGNLEVGVHIADVSHFIRPGNALDQESARRGTTVYLCEKRIDMVPELLSSNLCSLKCDVDRLAFSCIWEMNHNAEILKTKFTKSVINSKASLTYAEAQLRIDSANMNDDITTSLRGLNKLAKILKKRRIEKGALTLSSPEVRFHMDSETHDPIDLQTKELRETNSMVEEFMLLANISVAKKIHEEFSEHALLRKHPAPPPSNYEILVKAARSRNLEIKTDTAKSLAESLDQAESPTFPYLNTLLRILATRCMMQAVYFCSGMDNDFHHYGLASPIYTHFTSPIRRYADVIVHRLLAVAIGADCTYPELTDKHKLADICKNLNFRHKMAQYAQRASVAFHTQLFFKSKGIVSEEAYILFVRKNAIVVLIPKYGLEGTVFFEEKDKPNPQLIYDDEIPSLKIEDTVFHVFDKVKVKIMLDSSNLQHQKIRMSLVEPQIPGISIPTDTSNMDLNGPKKKKMKLGK

Each molecule was assayed against IPO4 (human) (UniProt Q8TEX9) in the same assay as above.

binding | Molecule
binds | ASCC1 (from UniProt Q8N9N2 1-400)
binds | TACC1 (from UniProt O75410 1-805)
binds | TACC3 (from UniProt Q9Y6A5 1-838)
binds | TRIP4 (protein, UniProt Q15650 1-581) MAVAGAVSGEPLVHWCTQQLRKTFGLDVSEEIIQYVLSIESAEEIREYVTDLLQGNEGKKGQFIEELITKWQKNDQELISDPLQQCFKKDEILDGQKSGDHLKRGRKKGRNRQEVPAFTEPDTTAEVKTPFDLAKAQENSNSVKKKTKFVNLYTREGQDRLAVLLPGRHPCDCLGQKHKLINNCLICGRIVCEQEGSGPCLFCGTLVCTHEEQDILQRDSNKSQKLLKKLMSGVENSGKVDISTKDLLPHQELRIKSGLEKAIKHKDKLLEFDRTSIRRTQVIDDESDYFASDSNQWLSKLERETLQKREEELRELRHASRLSKKVTIDFAGRKILEEENSLAEYHSRLDETIQAIANGTLNQPLTKLDRSSEEPLGVLVNPNMYQSPPQWVDHTGAASQKKAFRSSGFGLEFNSFQHQLRIQDQEFQEGFDGGWCLSVHQPWASLLVRGIKRVEGRSWYTPHRGRLWIAATAKKPSPQEVSELQATYRLLRGKDVEFPNDYPSGCLLGCVDLIDCLSQKQFKEQFPDISQESDSPFVFICKNPQEMVVKFPIKGNPKIWKLDSKIHQGAKKGLMKQNKAV
binds | HAUS2 (protein, UniProt Q9NVX0 1-235) MAAANPWDPASAPNGAGLVLGHFIASGMVNQEMLNMSKKTVSCFVNFTRLQQITNIQAEIYQKNLEIELLKLEKDTADVVHPFFLAQKCHTLQSMNNHLEAVLKEKRSLRQRLLKPMCQENLPIEAVYHRYMVHLLELAVTFIERLETHLETIRNIPHLAANLKKMNQALAKMDILVTETEELAENILKWRKQQNEVSSCIPKILAEESYLYKHDIIMPPLPFTSKVHVQTINAK

These molecules were tested against T1, TNPO2 (human) in the same assay as above.

binding | Molecule
binds | FUBP1 (from UniProt Q96AE4 1-644)
binds | FUBP3 (from UniProt Q96I24 1-572)
binds | CRTC2 (protein, UniProt Q53ET0 1-693) MATSGANGPGSATASASNPRKFSEKIALQKQRQAEETAAFEEVMMDIGSTRLQAQKLRLAYTRSSHYGGSLPNVNQIGSGLAEFQSPLHSPLDSSRSTRHHGLVERVQRDPRRMVSPLRRYTRHIDSSPYSPAYLSPPPESSWRRTMAWGNFPAEKGQLFRLPSALNRTSSDSALHTSVMNPSPQDTYPGPTPPSILPSRRGGILDGEMDPKVPAIEENLLDDKHLLKPWDAKKLSSSSSRPRSCEVPGINIFPSPDQPANVPVLPPAMNTGGSLPDLTNLHFPPPLPTPLDPEETAYPSLSGGNSTSNLTHTMTHLGISRGMGLGPGYDAPGLHSPLSHPSLQSSLSNPNLQASLSSPQPQLQGSHSHPSLPASSLARHVLPTTSLGHPSLSAPALSSSSSSSSTSSPVLGAPSYPASTPGASPHHRRVPLSPLSLLAGPADARRSQQQLPKQFSPTMSPTLSSITQGVPLDTSKLSTDQRLPPYPYSSPSLVLPTQPHTPKSLQQPGLPSQSCSVQSSGGQPPGRQSHYGTPYPPGPSGHGQQSYHRPMSDFNLGNLEQFSMESPSASLVLDPPGFSEGPGFLGGEGPMGGPQDPHTFNHQNLTHCSRHGSGPNIILTGDSSPGFSKEIAAALAGVPGFEVSAAGLELGLGLEDELRMEPLGLEGLNMLSDPCALLPDPAVEESFRSDRLQ
binds | CRTC1 (protein, UniProt Q6UUV9 1-634) MATSNNPRKFSEKIALHNQKQAEETAAFEEVMKDLSLTRAARLQLQKSQYLQLGPSRGQYYGGSLPNVNQIGSGTMDLPFQTPFQSSGLDTSRTTRHHGLVDRVYRERGRLGSPHRRPLSVDKHGRQADSCPYGTMYLSPPADTSWRRTNSDSALHQSTMTPTQPESFSSGSQDVHQKRVLLLTVPGMEETTSEADKNLSKQAWDTKKTGSRPKSCEVPGINIFPSADQENTTALIPATHNTGGSLPDLTNIHFPSPLPTPLDPEEPTFPALSSSSSTGNLAANLTHLGIGGAGQGMSTPGSSPQHRPAGVSPLSLSTEARRQQASPTLSPLSPITQAVAMDALSLEQQLPYAFFTQAGSQQPPPQPQPPPPPPPASQQPPPPPPPQAPVRLPPGGPLLPSASLTRGPQPPPLAVTVPSSLPQSPPENPGQPSMGIDIASAPALQQYRTSAGSPANQSPTSPVSNQGFSPGSSPQHTSTLGSVFGDAYYEQQMAARQANALSHQLEQFNMMENAISSSSLYSPGSTLNYSQAAMMGLTGSHGSLPDSQQLGYASHSGIPNIILTVTGESPPSLSKELTSSLAGVGDVSFDSDSQFPLDELKIDPLTLDGLHMLNDPDMVLADPATEDTFRMDRL

Reference: PMC5740495
